Reference: publication PMC7819943, “Rice protein-binding microarrays: a tool to detect cis-acting elements near promoter regions in rice”
This is one part of the list.

Each sequence was assayed against T1, OsSMF1 (Oryza sativa, UniProt Q6ZLB0 1-436) (assay: protein-binding microarray (RPBM); PBS, 2% BSA, 51.3 ng/ul salmon testes DNA, 50 uM zinc acetate, 200 nM TF, 25 C, 1 h; high values mean tight binding). Settings: protein: recombinant; tags: N-terminal polyhistidine and DsRed monomer fusion (pET32a); chain copies: 2; label: CyDye5-dUTP incorporated in the synthesized complementary strand; 3' TTTTT single-stranded linker to array surface; dsDNA, one strand shown.
T1 sequence: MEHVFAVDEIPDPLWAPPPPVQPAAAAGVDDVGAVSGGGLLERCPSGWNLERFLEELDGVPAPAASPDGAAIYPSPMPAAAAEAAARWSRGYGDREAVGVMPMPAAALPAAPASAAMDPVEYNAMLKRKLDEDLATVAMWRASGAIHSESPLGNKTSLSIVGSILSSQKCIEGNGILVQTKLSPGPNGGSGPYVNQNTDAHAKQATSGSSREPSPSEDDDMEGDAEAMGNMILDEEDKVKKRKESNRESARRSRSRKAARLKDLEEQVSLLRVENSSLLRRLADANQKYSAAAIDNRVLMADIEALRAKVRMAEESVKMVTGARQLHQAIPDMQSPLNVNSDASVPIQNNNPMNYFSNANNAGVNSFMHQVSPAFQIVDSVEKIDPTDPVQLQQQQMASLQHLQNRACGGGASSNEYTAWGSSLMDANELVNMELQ
In short: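 Binding signal here means per-feature fluorescence intensity in arbitrary units. The values were read on an Axon 4000B scanner after a custom Agilent array, double-stranded by primer extension with Cy5-dUTP, was incubated with 200 nM protein at 25 °C for 1 h in PBS with 2% BSA, salmon testes DNA and 50 µM zinc acetate, then washed. The proteins were transcription factors with an N-terminal polyhistidine tag and DsRed, expressed in E. coli BL21-CodonPlus and purified on Ni–NTA.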

Sequence	binding signal
TGCATGCGATACTGTCTTATCATGGACCGCTCCACCCCTCCGGAGTCACCTAGTGCAG	3380 fluorescence intensity (a.u.)
TTAAATATAAGGCGCAACTATCATTAAAATATGATATCGTCGGAGTCACCTAGTGCAG	37800 fluorescence intensity (a.u.)
TTGTGCAGGTGACGCTGCAGATTGCATATGGTATGGGTTTCGGAGTCACCTAGTGCAG	3960 fluorescence intensity (a.u.)
TCGATCGGGCTCGGAGACGTCGACGCCGACGAGGAGCTCCCGGAGTCACCTAGTGCAG	3230 fluorescence intensity (a.u.)
TAAAAGATTCGTCTCGCAATTTACACGCAATCTGTATAATCGGAGTCACCTAGTGCAG	3860 fluorescence intensity (a.u.)
TCGTCGTCGTCGTCTAGGAAGGTGAAGCCGGTGACGACGACGGAGTCACCTAGTGCAG	3680 fluorescence intensity (a.u.)
GGTGTGCATGCGTGCCGGTTACGTGGTGAAGGGGCTGCTGCGGAGTCACCTAGTGCAG	3930 fluorescence intensity (a.u.)
AGTGGATGAGTTTGAGTTTTAGGATTTAGTGGGGTATTATCGGAGTCACCTAGTGCAG	3450 fluorescence intensity (a.u.)
TCACCTTGCATCCCAGAAAATCCACACGCCGACGTGGCGGCGGAGTCACCTAGTGCAG	18100 fluorescence intensity (a.u.)
GTGGATTTTCTAGGACAAAAGGAGTGTGTGATGCCATTGTCGGAGTCACCTAGTGCAG	14700 fluorescence intensity (a.u.)
GGGGTGCCACACACACGTACGTACGGGAGGATCAGTGCAACGGAGTCACCTAGTGCAG	3450 fluorescence intensity (a.u.)
GGGGCAGCCATGTCATTTCCCCGCCAAGAAACTATCTCCACGGAGTCACCTAGTGCAG	5190 fluorescence intensity (a.u.)
AAATGGTTCTACAAATGAACCAGGTACTGTAGTTGAATTCCGGAGTCACCTAGTGCAG	33700 fluorescence intensity (a.u.)
GCCCGCGCGCGCGGGAACACACGTATACGCATGTGGAGGCCGGAGTCACCTAGTGCAG	3390 fluorescence intensity (a.u.)
TTTTAGGTAGAATGGTCCTGTTGGATCATCATATCAATGACGGAGTCACCTAGTGCAG	43400 fluorescence intensity (a.u.)
GTGTGATTATAACTACACATCAGCTTGCTGGCCAGCCTCTCGGAGTCACCTAGTGCAG	6590 fluorescence intensity (a.u.)
TGCGCCCCAGATACAAAGTCGCCAACGCGCAATTTATTTACGGAGTCACCTAGTGCAG	36400 fluorescence intensity (a.u.)
GTAGTATGTTATTGTACGTGGATATTTTATAGAGATGCTACGGAGTCACCTAGTGCAG	3400 fluorescence intensity (a.u.)
GACCAAATCGAATTATGCATCCACTATAAATATAGGAGTTCGGAGTCACCTAGTGCAG	3690 fluorescence intensity (a.u.)
AGTGTCGTTGTCACGTCTACCGTGAGCGCGGAACTACCCTCGGAGTCACCTAGTGCAG	3610 fluorescence intensity (a.u.)
GTGGCCGTGGTAGGGAGAGGTGGTGGTGCGCGCGCGGTAACGGAGTCACCTAGTGCAG	3440 fluorescence intensity (a.u.)
GATTGGAATAAGTGGTGACAGCACATTATTACCAACTTTTCGGAGTCACCTAGTGCAG	4440 fluorescence intensity (a.u.)
GCCCAGCTTGTATATAATGGCACGCATTCCTCTGCACCTCCGGAGTCACCTAGTGCAG	3900 fluorescence intensity (a.u.)
TTCACCATCGAGCTCATGGTTTGGACGTTTGGTCACCACCCGGAGTCACCTAGTGCAG	3180 fluorescence intensity (a.u.)
TATCAAAATCCACTGCAACATTTAATACATACATAGTGAACGGAGTCACCTAGTGCAG	21300 fluorescence intensity (a.u.)
CACCGATTTCATCGTGCCGTGACTCACATGCCGCGCCGACCGGAGTCACCTAGTGCAG	8120 fluorescence intensity (a.u.)
GGGTGAGTGTGTGTTGTGCGTTGTGAGTGTGTATGTGTTTCGGAGTCACCTAGTGCAG	3730 fluorescence intensity (a.u.)

Quoted from the entries so far for reference:
Sequence	binding signal
GACCAAATCGAATTATGCATCCACTATAAATATAGGAGTTCGGAGTCACCTAGTGCAG	3690 fluorescence intensity (a.u.)
AGTGTCGTTGTCACGTCTACCGTGAGCGCGGAACTACCCTCGGAGTCACCTAGTGCAG	3610 fluorescence intensity (a.u.)
GTGGCCGTGGTAGGGAGAGGTGGTGGTGCGCGCGCGGTAACGGAGTCACCTAGTGCAG	3440 fluorescence intensity (a.u.)

More records follow.

Sequence	binding signal
ACTAGTCCATGTAAACACAACAAATAGGTGATGTCATGGACGGAGTCACCTAGTGCAG	4800 fluorescence intensity (a.u.)
TTTACCCCTACCCCACATGTCAGTGACAGAGTCTGCGGGGCGGAGTCACCTAGTGCAG	3170 fluorescence intensity (a.u.)
CACACCGCTCCACTCCGCCGCTGCCCTGCTCCACTCCGTCCGGAGTCACCTAGTGCAG	20900 fluorescence intensity (a.u.)
GTGTGTGGTAAGAACAGTGTATGTCTCCATCAGGCCATAGCGGAGTCACCTAGTGCAG	3440 fluorescence intensity (a.u.)
ACCCGCCAACATCCTGGATAATCCACGATGACTAGGACACCGGAGTCACCTAGTGCAG	6250 fluorescence intensity (a.u.)
CTTGGTGGCCTATTCTGATGTGGACTGGGCTGGCTGTCCACGGAGTCACCTAGTGCAG	5160 fluorescence intensity (a.u.)
ATGAATACGATGATGATGACGATGTTGGGTACACCCGGCACGGAGTCACCTAGTGCAG	5650 fluorescence intensity (a.u.)
TCGATCTGCGTCCAGCAAGCAGACACACGTAACCAACTGCCGGAGTCACCTAGTGCAG	3530 fluorescence intensity (a.u.)
GTTTAGTTAATGTGAAATTCACCATGAGAATTCGCTTGGACGGAGTCACCTAGTGCAG	12300 fluorescence intensity (a.u.)
ACTTTTATACACGTAAGCGCCACGTCAGCTCCACATGGAACGGAGTCACCTAGTGCAG	31800 fluorescence intensity (a.u.)
GTGTCTGCCTCCGCGTCCGCTTCGTCACGGCGGTGTCGGTCGGAGTCACCTAGTGCAG	5900 fluorescence intensity (a.u.)
TTTTGCTATATCAATATGAATCTCCGCACTATCTTGGGTGCGGAGTCACCTAGTGCAG	3630 fluorescence intensity (a.u.)
AGAAGGGGCGGCATGGTACCAATGACCAACAAAGAGGTAACGGAGTCACCTAGTGCAG	5370 fluorescence intensity (a.u.)
TTTAGTAGTTTGAAAAGCATACGCGCGGAAACCGAGCAAGCGGAGTCACCTAGTGCAG	3190 fluorescence intensity (a.u.)
ATTTATACATCTCTTTCAAATTACGTGGGCACACTGTCTCCGGAGTCACCTAGTGCAG	5400 fluorescence intensity (a.u.)
CGACCGCCGTCAGCGCCGATGAGCCACGATCGCCCTCTACCGGAGTCACCTAGTGCAG	3420 fluorescence intensity (a.u.)
ACGGTAGCCGGCGGCGGTGCCATGTAGGATAAAGACCAGGCGGAGTCACCTAGTGCAG	3570 fluorescence intensity (a.u.)
CTCTCGAACACGTGGCTTTGTCTCATCTCTTAGATCTTCACGGAGTCACCTAGTGCAG	9730 fluorescence intensity (a.u.)
GTTGGGGAGCGGGGTGTGTGTGCCAGGCGCTCGGGCGGGGCGGAGTCACCTAGTGCAG	5050 fluorescence intensity (a.u.)
ACTGAGCAGAACGAATGAAGCCGCCGCAGCGTCGGTGCGACGGAGTCACCTAGTGCAG	30200 fluorescence intensity (a.u.)
GGAAAACCAAAAGACCGGTAGGTAGACCCCACCTGTCAGTCGGAGTCACCTAGTGCAG	3180 fluorescence intensity (a.u.)
GGCCCAACTTGATTTGGGCCCACACGTCGGTGACAATCTCCGGAGTCACCTAGTGCAG	4500 fluorescence intensity (a.u.)
TGATACACGTGTAGCCCCTACACACCATGTTTGTGGTTCCCGGAGTCACCTAGTGCAG	5860 fluorescence intensity (a.u.)
GAAGCCACCAATGAAAGATGGCCTTTTGGGCCTTGGGCCTCGGAGTCACCTAGTGCAG	7710 fluorescence intensity (a.u.)
TCACTTGAAAGCTAATGAGTCATGGTGAATATACAACTGCCGGAGTCACCTAGTGCAG	5570 fluorescence intensity (a.u.)
GGTGGAGGAGGAGGATGAGTTTGGGGAGTGTAATATCTGCCGGAGTCACCTAGTGCAG	3240 fluorescence intensity (a.u.)
GGCGGTTTTGGATGACGTGGTGCCTACGTGGCTAATTTGACGGAGTCACCTAGTGCAG	35600 fluorescence intensity (a.u.)
